Laboratory results taken from PubChem BioAssay AID2685 (National Center for Advancing Translational Sciences (NCATS), 2010).
In all, about 320,000 compounds went through this assay and about 2,100 (0.66%) were called active. Inconclusive results, whose numbers are uncertain, are shown with a selection of clear calls. Calls come from the whole dose curve; as a rule, active = well fitted inhibition curve with a large enough effect in the signal ratio, with a control signal flat (not every such curve was filed as active); inconclusive = small, poorly fitted or top-dose-only effect, or effect the other way, or a change in a side signal; inactive = flat fitted curve, though single readings scatter; the % refers to the signal ratio. A potency beside an inconclusive call is a rough fit, not a confirmed value.

assay: qHTS Assay for Lipid Storage Modulators in Drosophila S3 Cells; details: BODIPY lipid droplet fluorescence, 18-24 h, cells fed with added oleic acid; lipid storage change, negative = inhibition: at 46.1 µM (top of the series) unless noted
In short: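 Drosophila S3 cells got compounds at several concentrations plus oleic acid (400 uM solution). Laser-scanning cytometry with 488 nm excitation read lipid droplets at 500-530 nm and cells at 575-640 nm. Percent activity was relative to 20 uM Triacsin C.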
% is set by controls: 0 for no effect and ±100 for the full control effect; potency is the fitted concentration of half-maximal effect.

Lipid storage change, negative = inhibition, inactive:
Cc1cc(C)nc(SCC(=O)Nc2nccs2)n1

Lipid storage change, negative = inhibition, inconclusive:
COC(=O)c1ccc(CSc2nnc3c(Cl)cc(Cl)cn23)o1 14.3%, CC(C)Cc1nnc(NC(=O)C23CC4CC(CC(C4)C2)C3)s1 32.9%, CC(O)CNCCOc1ccccc1OCc1ccccc1 (configuration not stated) -14.8%, O=C(CCCc1cccs1)Nc1nc(-c2ccc(F)cc2)cs1 10.5%, COc1ccc(/C=C/C(=O)NCCCn2ccnc2)cc1 29.5%, Cc1cccc(NC(=O)c2onc3c2CCCC3)n1 5.44%, COc1cc2c(cc1OC)/C(=C/C(=O)c1ccc(F)cc1)NCC2 73.5%, C/C(=N/NC(=O)c1cccs1)c1ccc(N2CCOCC2)cc1 -1.86%, COc1cc([N+](=O)[O-])ccc1NC(=O)Nc1ccc(C(=O)N2CCCC2)cc1 15.9%, CCC(=O)Nn1c(C2CCC2)nc2ccccc2c1=O -14.2%, CC(CN1CCOCC1)OC(=O)/C=C/c1ccccc1 (configuration not stated) 2.93%, O=C(CN1C(=O)NC(CCc2ccccc2)C1=O)NC1CC1 (configuration not stated) -20.9%, COc1cc(C(=O)O/N=C(\N)Cc2ccc([N+](=O)[O-])cc2)cc(OC)c1OC -1.31%

Potency, active:
CCCN1CCc2c(sc(NC(=O)c3ccc(S(=O)(=O)N(C)c4ccccc4)cc3)c2C(=O)NC)C1 4.11 µM

Potency, inconclusive:
COc1ccccc1C(=O)OCC(=O)Nc1ccccc1OC(F)F 1.64 µM [activator, partial curve, poor fit], Cc1cc(C)c2nc(SC(C)C#N)cc(C)c2c1 (configuration not stated) 0.651 µM [rising, partial curve, poor fit], COc1cc(OC)c(C(=O)O/N=C(\N)c2ccccn2)cc1OC 0.731 µM [falling, full curve], Cc1cccc(C)c1NC(=O)c1cccc(N2C(=O)C3CCC(C)CC3C2=O)c1 (configuration not stated) 0.13 µM [activator, full curve, poor fit], O=C(Nc1ccccc1F)c1ccc(S(=O)(=O)NCC2CCCO2)cc1 (configuration not stated) 0.0046 µM [falling, full curve, poor fit], COc1ccc(N(C(=O)c2cnccn2)C(C(=O)NCc2ccccc2)c2ccc(O)cc2)cc1 (configuration not stated) 2.91 µM [activator, single point], O=C1C(=O)N(Cc2cccnc2)C(c2cccc([N+](=O)[O-])c2)/C1=C(\O)c1ccc2c(c1)OCCO2 (configuration not stated) 29.1 µM [activator, single point]
